Whole data set: some 33,000 sequences, median “E-score (-0.5 to 0.5)” near -0.0014, cut for the highest 2% near 0.25. This is one part of the list.
Target: T1, Cad1 (UniProt P24813)
T1 sequence: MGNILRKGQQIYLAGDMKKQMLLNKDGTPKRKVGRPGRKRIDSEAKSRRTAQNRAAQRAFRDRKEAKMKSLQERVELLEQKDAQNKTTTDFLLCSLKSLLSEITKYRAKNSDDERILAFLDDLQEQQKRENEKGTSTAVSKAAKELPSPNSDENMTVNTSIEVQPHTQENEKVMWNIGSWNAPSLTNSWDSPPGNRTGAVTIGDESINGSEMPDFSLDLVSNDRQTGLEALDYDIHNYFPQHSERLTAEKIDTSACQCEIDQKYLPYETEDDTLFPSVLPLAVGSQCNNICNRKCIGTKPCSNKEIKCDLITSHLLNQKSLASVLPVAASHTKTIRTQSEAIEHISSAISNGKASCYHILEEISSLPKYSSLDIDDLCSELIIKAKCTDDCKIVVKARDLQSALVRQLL
Experiment: PBM E-score (8-mer binding enrichment) (E-score (-0.5 to 0.5)); higher = stronger / more preferred TF binding
Conditions: protein concentration: 100 nM; construct: GST-full length
Outline: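 Yeast transcription factors, full-length or as DNA-binding domains, were expressed with a GST tag using PURExpress in vitro transcription/translation. At about 100-200 nM they were applied to universal all-10-mer Agilent arrays, double-stranded by primer extension on fresh or once-stripped slides. Fluorescent anti-GST detected bound protein, and masliner normalised the scans. E-scores for ungapped eight-base words, pooled with reverse complements, came from the Universal PBM Analysis Suite.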

Sequence	PBM E-score
ACGATCGG	0.0625
CGCCGTTC	0.086
AGACAATG	0.02
AACCGCCG	-0.12
AACAGGAC	0.0596
AGTAAGCC	0.156
AAGGTCTG	-0.0627
ATTTCGCA	0.195
CCAATTCG	0.00661
CCCAAAGG	-0.226
CTCACATC	-0.0273
AGATAAGC	0.122
CGTAAGTA	0.0957
AACTCTAC	-0.181
ACAAGTAG	-0.25
CAACCAAA	0.0894
AGGGAGAA	-0.102
CCTCTTAA	0.123
CATTGCTA	0.209
CCACTACA	-0.113
ATCTGGGC	-0.165
ATTCTGCA	0.149
GCTCCGAC	-0.0885
ACCTAAAG	0.11

Looked up one by one from above:
Sequence	PBM E-score
AGATAAGC	0.122
ATCTGGGC	-0.165
CATTGCTA	0.209
CGCCGTTC	0.086
CCTCTTAA	0.123
ACGATCGG	0.0625
ACCTAAAG	0.11

More records.

Sequence	PBM E-score
GTCAAGAC	-0.149
CCAAACCG	0.0268
AGACGTTC	0.0289
ATGCGCCA	-0.0186
ACGGTTCC	0.161
TGGCACCA	-0.0587
CTTATCGC	0.0636
GACCGCAC	-0.118
AGCGCGAT	0.22
GCAGTCCA	-0.0495
ATTGTGGG	0.0283
CGGACGAC	-0.0294
CAAGATAA	0.0886
ATATGTAA	0.209
ATAATGGG	-0.0187
AGACCAGC	-0.203
ACTCCGTA	-0.228
CAAGTTCG	-0.118
ACGGAACT	0.14
AGAGATCA	-0.0178
CTGTAATC	0.0947
ATCGAAAT	0.0274
TATCAGCA	0.0575
CAAGATGA	-0.189

Sequence	PBM E-score
TAACGGGA	-0.0399
ACCCAAGG	-0.0568
ATCGACTA	-0.0833
CTAAATCC	0.106
GCTTGTAA	0.0954
ATCCATGG	-0.0689
AGTTCTCC	-0.21
AACGCTAA	-0.0579
CTTTGGTC	-0.0468
CGGGATTC	0.0799
CATTGAGG	-0.202
AGCACTAA	0.094
AGGTAGGC	-0.156
CACGTCGA	-0.0493
CCTTGGTA	0.0354
GGCTACAC	-0.0182
AATTTTCG	0.09
AGGACAAG	-0.13
CACAGCAC	-0.0189
ACAAGTAC	-0.0799
AAAGACGA	-0.00996
GGATCGCC	-0.00869
GACAGGTA	-0.0364
AGGGAGAG	-0.194

Sequence	PBM E-score
GGATCAAA	0.111
AAGACCAT	3e-05
CCGGGACC	-0.0474
ATGTTTCA	0.0198
GAAGGGAC	-0.216
AAGCTGAT	0.216
CCTATAGA	0.0029
CCCCGAAG	-0.127
CGTATATA	0.0397
CTCACAAG	0.0553
GAGATCAA	0.0808
AACGACCC	-0.0693
GCACTATA	0.0551
ATGTCTGC	-0.0115
TCGCGTCA	0.0403
CCCGGAGC	0.0222
GTCCATTA	0.0858
ATTCTTCC	-0.0601
GCACACCA	-0.0778
CATCTCCG	0.112
CCCACTCC	-0.208
AAGCCACA	0.0406

— the supplement of paper PMC3334620
